Reference: the supplement of paper PMC10849652
The list shows a part of the results.

Sequences of proteins named here, by UniProt entry; tags and fusion partners are left off. A change or cut given only in a name is not applied to a line headed by its entry.
UniProt Q5I7T1: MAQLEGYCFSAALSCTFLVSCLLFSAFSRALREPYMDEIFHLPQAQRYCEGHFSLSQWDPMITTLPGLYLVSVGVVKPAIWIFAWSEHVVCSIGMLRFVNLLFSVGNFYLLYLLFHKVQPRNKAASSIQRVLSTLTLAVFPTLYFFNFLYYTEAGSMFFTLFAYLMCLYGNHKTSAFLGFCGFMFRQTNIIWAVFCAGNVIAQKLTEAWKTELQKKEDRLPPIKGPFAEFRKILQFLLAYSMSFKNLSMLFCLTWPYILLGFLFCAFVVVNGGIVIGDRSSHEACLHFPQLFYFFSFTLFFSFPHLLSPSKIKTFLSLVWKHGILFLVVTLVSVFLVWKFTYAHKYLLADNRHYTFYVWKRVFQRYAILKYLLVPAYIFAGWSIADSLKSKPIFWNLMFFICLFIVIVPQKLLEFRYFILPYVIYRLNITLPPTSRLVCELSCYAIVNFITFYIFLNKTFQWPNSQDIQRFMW
UniProt Q3KRA9: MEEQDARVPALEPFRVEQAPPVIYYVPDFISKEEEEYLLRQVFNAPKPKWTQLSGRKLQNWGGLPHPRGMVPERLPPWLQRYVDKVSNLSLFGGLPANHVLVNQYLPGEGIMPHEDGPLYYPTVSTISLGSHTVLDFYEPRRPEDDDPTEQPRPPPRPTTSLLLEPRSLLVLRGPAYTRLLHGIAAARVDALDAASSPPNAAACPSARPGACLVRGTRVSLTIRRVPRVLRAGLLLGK
UniProt O94788: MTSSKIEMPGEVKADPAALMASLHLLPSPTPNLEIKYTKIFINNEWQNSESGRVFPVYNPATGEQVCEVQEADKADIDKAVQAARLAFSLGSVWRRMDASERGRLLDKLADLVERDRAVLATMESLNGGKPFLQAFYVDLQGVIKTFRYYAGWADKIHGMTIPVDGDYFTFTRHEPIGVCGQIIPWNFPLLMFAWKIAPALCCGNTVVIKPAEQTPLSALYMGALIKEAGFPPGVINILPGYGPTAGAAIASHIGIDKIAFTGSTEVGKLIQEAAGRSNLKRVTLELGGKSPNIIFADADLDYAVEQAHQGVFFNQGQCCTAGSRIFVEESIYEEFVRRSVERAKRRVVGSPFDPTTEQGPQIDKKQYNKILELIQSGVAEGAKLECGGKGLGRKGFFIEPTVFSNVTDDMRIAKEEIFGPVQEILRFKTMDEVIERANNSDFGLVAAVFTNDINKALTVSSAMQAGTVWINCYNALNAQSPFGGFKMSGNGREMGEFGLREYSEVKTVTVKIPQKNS
UniProt O15120: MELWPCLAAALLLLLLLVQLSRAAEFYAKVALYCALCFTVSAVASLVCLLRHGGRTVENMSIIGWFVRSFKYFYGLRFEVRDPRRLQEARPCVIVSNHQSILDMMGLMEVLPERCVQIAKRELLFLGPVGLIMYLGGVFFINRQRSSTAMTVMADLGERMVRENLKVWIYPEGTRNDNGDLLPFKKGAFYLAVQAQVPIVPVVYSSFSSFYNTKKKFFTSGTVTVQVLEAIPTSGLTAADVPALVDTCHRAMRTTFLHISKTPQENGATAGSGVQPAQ
UniProt P30520: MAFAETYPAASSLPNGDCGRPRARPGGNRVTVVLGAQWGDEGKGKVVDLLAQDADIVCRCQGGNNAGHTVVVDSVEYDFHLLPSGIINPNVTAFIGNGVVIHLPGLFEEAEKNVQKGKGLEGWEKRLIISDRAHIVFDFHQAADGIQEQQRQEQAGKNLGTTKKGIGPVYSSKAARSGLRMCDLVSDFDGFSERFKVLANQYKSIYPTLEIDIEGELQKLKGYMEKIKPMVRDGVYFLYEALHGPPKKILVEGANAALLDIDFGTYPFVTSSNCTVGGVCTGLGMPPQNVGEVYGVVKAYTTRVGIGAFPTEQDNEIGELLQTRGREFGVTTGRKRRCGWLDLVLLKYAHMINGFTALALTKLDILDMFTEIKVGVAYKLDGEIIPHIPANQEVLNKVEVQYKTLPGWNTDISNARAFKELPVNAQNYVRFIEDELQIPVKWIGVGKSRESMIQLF
UniProt Q92667: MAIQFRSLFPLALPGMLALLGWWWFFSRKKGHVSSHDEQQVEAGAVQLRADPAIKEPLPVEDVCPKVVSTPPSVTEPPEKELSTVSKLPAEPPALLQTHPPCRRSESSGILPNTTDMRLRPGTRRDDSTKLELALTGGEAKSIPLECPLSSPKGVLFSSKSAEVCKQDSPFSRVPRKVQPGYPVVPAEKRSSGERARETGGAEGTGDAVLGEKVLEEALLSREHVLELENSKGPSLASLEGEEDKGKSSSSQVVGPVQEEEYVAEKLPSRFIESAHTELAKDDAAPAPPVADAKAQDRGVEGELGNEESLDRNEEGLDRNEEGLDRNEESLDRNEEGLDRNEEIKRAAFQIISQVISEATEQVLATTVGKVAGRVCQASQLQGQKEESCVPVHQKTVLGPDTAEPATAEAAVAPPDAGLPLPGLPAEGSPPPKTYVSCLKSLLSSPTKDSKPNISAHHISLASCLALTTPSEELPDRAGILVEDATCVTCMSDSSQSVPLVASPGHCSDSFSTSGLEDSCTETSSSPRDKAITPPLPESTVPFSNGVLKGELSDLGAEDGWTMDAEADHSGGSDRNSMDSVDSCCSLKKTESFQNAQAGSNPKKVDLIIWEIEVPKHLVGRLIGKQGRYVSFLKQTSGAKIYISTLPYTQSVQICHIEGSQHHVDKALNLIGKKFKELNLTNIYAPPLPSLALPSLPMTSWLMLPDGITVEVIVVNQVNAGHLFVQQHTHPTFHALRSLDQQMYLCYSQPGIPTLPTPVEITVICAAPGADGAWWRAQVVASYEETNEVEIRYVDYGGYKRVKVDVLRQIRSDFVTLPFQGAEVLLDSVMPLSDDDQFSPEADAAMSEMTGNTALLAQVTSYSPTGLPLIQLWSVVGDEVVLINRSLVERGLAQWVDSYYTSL
UniProt Q8WYP5: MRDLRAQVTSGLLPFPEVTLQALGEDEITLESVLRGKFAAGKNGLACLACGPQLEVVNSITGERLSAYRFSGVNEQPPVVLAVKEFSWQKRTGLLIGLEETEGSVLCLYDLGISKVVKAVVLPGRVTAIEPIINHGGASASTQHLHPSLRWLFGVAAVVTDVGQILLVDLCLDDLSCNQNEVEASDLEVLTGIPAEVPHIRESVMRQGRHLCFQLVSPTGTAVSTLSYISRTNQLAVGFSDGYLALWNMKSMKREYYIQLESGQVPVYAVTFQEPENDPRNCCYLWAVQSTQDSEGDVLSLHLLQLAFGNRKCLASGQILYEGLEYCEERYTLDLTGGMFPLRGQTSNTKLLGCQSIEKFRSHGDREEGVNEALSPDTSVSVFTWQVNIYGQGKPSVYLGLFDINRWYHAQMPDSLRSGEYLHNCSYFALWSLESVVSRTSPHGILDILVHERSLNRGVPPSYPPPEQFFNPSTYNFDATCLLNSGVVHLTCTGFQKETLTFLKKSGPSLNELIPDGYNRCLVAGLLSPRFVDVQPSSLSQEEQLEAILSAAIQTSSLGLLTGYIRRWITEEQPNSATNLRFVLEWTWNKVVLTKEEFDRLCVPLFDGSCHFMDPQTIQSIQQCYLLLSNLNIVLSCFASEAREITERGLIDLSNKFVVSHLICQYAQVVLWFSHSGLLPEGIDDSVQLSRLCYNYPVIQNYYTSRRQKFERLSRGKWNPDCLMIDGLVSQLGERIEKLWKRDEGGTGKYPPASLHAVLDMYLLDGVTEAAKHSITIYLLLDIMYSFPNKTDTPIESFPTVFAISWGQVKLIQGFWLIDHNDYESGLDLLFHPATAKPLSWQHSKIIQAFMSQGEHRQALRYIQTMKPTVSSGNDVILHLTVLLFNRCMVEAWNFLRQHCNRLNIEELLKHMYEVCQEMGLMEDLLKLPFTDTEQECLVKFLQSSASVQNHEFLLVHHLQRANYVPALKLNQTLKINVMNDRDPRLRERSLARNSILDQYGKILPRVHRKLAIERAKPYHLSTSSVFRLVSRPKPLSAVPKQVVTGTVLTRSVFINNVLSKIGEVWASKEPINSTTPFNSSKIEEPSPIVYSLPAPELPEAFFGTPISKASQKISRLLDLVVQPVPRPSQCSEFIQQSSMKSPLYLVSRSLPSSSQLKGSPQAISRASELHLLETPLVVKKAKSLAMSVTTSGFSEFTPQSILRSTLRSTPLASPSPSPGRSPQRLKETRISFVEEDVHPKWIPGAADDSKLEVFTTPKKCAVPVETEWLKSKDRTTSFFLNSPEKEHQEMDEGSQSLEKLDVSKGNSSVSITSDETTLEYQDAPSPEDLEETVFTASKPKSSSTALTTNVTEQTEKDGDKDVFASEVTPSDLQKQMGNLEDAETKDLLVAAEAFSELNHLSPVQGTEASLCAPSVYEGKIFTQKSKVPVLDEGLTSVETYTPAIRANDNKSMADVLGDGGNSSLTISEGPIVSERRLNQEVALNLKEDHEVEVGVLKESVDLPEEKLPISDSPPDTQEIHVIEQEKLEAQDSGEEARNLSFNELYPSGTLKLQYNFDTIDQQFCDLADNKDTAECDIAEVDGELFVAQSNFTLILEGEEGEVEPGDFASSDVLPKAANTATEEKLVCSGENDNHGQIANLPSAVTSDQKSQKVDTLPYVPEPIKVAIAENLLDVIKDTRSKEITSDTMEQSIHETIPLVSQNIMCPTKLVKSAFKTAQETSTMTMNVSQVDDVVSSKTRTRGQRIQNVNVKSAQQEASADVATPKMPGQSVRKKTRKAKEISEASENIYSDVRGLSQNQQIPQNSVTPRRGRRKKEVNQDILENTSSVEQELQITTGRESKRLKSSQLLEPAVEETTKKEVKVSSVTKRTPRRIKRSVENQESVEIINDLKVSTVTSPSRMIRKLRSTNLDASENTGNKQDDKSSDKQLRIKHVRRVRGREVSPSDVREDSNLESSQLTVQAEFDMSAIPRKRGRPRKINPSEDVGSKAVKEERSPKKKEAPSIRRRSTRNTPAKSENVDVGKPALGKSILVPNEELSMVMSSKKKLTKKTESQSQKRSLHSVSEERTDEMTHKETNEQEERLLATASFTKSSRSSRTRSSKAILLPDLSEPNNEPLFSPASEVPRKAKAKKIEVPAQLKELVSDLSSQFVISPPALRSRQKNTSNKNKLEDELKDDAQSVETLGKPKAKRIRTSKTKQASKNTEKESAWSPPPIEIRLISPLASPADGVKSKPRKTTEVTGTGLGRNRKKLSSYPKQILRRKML
UniProt Q9Y303: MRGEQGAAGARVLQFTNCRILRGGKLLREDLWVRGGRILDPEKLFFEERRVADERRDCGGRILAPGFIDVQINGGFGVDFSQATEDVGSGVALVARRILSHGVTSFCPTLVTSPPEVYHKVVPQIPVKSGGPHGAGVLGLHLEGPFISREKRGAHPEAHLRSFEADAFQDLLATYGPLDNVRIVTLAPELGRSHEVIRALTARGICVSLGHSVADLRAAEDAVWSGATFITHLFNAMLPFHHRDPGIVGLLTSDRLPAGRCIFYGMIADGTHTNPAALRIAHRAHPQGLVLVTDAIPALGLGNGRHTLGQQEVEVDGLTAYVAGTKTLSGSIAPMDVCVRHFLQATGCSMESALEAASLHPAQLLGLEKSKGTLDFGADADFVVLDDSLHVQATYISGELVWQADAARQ
UniProt Q9Y672: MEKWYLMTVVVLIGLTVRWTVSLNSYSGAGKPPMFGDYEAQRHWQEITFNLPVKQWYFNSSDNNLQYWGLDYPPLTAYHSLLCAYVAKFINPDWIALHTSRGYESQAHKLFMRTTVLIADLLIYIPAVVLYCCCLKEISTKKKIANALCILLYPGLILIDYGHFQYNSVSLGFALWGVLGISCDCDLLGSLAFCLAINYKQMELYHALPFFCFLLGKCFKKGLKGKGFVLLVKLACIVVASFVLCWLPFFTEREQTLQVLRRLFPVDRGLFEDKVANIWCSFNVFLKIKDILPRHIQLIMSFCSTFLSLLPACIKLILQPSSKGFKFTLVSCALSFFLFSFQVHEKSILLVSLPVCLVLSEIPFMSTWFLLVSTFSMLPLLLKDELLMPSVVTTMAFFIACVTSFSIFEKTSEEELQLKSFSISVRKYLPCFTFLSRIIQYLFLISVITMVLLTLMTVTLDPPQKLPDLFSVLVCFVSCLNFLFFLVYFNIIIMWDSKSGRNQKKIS
UniProt Q13155: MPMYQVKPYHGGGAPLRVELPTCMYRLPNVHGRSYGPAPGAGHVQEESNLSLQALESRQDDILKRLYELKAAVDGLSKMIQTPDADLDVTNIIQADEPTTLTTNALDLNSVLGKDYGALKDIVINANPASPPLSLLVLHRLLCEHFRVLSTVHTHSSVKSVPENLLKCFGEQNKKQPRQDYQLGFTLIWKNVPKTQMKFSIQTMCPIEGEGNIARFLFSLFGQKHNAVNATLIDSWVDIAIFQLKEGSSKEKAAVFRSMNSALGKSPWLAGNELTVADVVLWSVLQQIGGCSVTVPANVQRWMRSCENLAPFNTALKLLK
UniProt Q9BV57: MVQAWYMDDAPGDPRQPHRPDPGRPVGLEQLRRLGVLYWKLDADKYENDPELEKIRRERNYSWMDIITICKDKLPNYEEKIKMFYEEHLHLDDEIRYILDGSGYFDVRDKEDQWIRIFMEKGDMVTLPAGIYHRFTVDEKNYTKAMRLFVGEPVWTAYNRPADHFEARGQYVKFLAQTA

Legend:
Assay in all cases: log2 fold change, soluble protein after heating vs DMSO (PISA); higher = thermal stabilisation; K562 cells, 10 uM, 30 min; active = over 0.2 and 3.5 SD of the protein, either way, in both replicates (recomputed)
[1] = compound: CS(=O)(=O)c1ccc(-c2cnc(N)c(C(=O)Nc3ccccc3)n2)cc1
Outline: (§1)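 Thermal stability values are relative to control samples and come from duplicates. They are expressed as log2 fold changes. For measurement, K562 cells (2×10^6 cells/mL) received 10 μM compound for 30 min, and aliquots were heated for 3 min over 48°C-58°C, pooled, and extracted at 4°C in PBS with 0.5% NP-40. Soluble protein, the supernatant after 21,000xg for 90 min, was quantified by TMTpro 16plex LC-MS/MS with equalised channel sums.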

crizotinib = compound: C[C@@H](Oc1cc(-c2cnn(C3CCNCC3)c2)cnc1N)c1c(Cl)ccc(F)c1Cl [crizotinib]
Outline: as §1

[2] = compound: C[C@@H]1COCCN1C2=NC(=NC(=C2)C3(CC3)S(=O)(=O)C)C4=C5C=CNC5=CC=C4
Outline: as §1

[3] = compound: C[C@H](C1=CC=C(C=C1)C(=O)NC2=C3C=CNC3=NC=C2)N
Outline: as §1

duvelisib = compound: C[C@H](Nc1ncnc2nc[nH]c12)c1cc2cccc(Cl)c2c(=O)n1-c1ccccc1 [duvelisib]
Outline: as §1

gandotinib = compound: Cc1cc(Nc2cc(CN3CCOCC3)c3nc(C)c(Cc4ccc(Cl)cc4F)n3n2)n[nH]1 [gandotinib]
Outline: as §1

tozasertib = compound: Cc1cc(Nc2cc(N3CCN(C)CC3)nc(Sc3ccc(NC(=O)C4CC4)cc3)n2)n[nH]1 [tozasertib]
Outline: as §1

[4] = compound: Cc1cc(SCc2sc(-c3ccc(C(F)(F)F)cc3)nc2C)ccc1OCC(=O)O
Outline: as §1

doramapimod = compound: Cc1ccc(-n2nc(C(C)(C)C)cc2NC(=O)Nc2ccc(OCCN3CCOCC3)c3ccccc23)cc1 [doramapimod]
Outline: as §1

ispinesib = compound: Cc1ccc(C(=O)N(CCCN)[C@@H](c2nc3cc(Cl)ccc3c(=O)n2Cc2ccccc2)C(C)C)cc1 [ispinesib]
Outline: as §1

Measured: log2 fold change

ALG10B (UniProt Q5I7T1)
inactive: [1] -0.048 | crizotinib -0.076 | [2] -0.048 | [3] -0.027 | duvelisib 0.003 | gandotinib -0.101 | tozasertib -0.024 | [4] 0.007 | doramapimod 0.091 | ispinesib -0.007

AGTRAP (UniProt Q6RW13)
inactive: [1] 0.002 | crizotinib -0.052 | [2] 0.216 | [3] -0.031 | duvelisib 0.133 | gandotinib -0.122 | tozasertib 0.021 | [4] -0.033 | doramapimod 0.036 | ispinesib -0.062

ALKBH6 isoform 2 (UniProt Q3KRA9)
inactive: [1] 0.019 | crizotinib 0.027 | [2] -0.008 | [3] -0.041 | duvelisib -0.009 | gandotinib -0.008 | tozasertib 0.018 | [4] -0.059 | doramapimod 0.065 | ispinesib 0.043

AHCYL2 (UniProt Q96HN2)
inactive: [1] 0.033 | crizotinib 0.053 | [2] 0.011 | [3] -0.033 | duvelisib 0.039 | gandotinib -0.026 | tozasertib -0.046 | [4] -0.034 | doramapimod -0.035 | ispinesib -0.002

ALDH1A2 (UniProt O94788)
inactive: [1] 0.092 | crizotinib 0.026 | [2] 0.014 | [3] -0.058 | duvelisib 0.023 | gandotinib -0.033 | tozasertib -0.022 | [4] -0.014 | doramapimod -0.014 | ispinesib 0.071

AKAP12 (UniProt Q02952)
inactive: [1] 0.024 | crizotinib 0.033 | [2] -0.039 | [3] 0.048 | duvelisib 0.046 | gandotinib -0.033 | tozasertib -0.021 | [4] 0.053 | doramapimod -0.085 | ispinesib -0.049

ADPRM (UniProt Q3LIE5)
inactive: [1] -0.083

AGPAT2 (UniProt O15120)
inactive: [1] -0.023 | crizotinib 0.008 | [2] 0.003 | [3] 0.003 | duvelisib -0.007 | gandotinib 0.018 | tozasertib 0 | [4] -0.062 | doramapimod 0.098 | ispinesib -0.081

ALDH4A1 (UniProt P30038)
inactive: [1] 0.024 | crizotinib 0 | [2] 0.063 | [3] -0.126 | duvelisib 0.002 | gandotinib 0.036 | tozasertib -0.035 | [4] -0.008 | doramapimod 0.01 | ispinesib -0.084

ALDH5A1 isoform 2 (UniProt P51649)
inactive: [1] 0.016 | crizotinib 0.052 | [2] 0.071 | [3] -0.107 | duvelisib 0.039 | gandotinib 0 | tozasertib -0.009 | [4] -0.031 | doramapimod -0.07 | ispinesib 0.009

ADSS2 (UniProt P30520)
inactive: [1] 0.051 | crizotinib 0.073 | [2] 0.044 | [3] -0.02 | duvelisib 0.025 | gandotinib 0 | tozasertib -0.028 | [4] 0.009 | doramapimod -0.003 | ispinesib 0.055

AKR1A1 (UniProt P14550)
inactive: [1] 0.048 | crizotinib -0.006 | [2] 0.112 | [3] -0.094 | duvelisib 0.046 | gandotinib -0.065 | tozasertib -0.001 | [4] 0.006 | doramapimod 0.033 | ispinesib 0.028

AGO4 (UniProt Q9HCK5)
inactive: [1] -0.072 | crizotinib 0.073 | [2] -0.084 | [3] 0.047 | duvelisib 0.038 | gandotinib -0.032 | tozasertib 0.022 | [4] 0.029 | doramapimod -0.044 | ispinesib -0.005

AKAP1 (UniProt Q92667)
inactive: [1] 0.007 | crizotinib -0.024 | [2] -0.08 | [3] 0.266 | duvelisib -0.028 | gandotinib -0.002 | tozasertib 0.023 | [4] 0.038 | doramapimod 0.082 | ispinesib -0.075

ALDH16A1 (UniProt Q8IZ83)
inactive: [1] -0.006 | crizotinib 0.021 | [2] 0.069 | [3] -0.017 | duvelisib 0.028 | gandotinib 0.053 | tozasertib -0.035 | [4] -0.003 | doramapimod -0.016 | ispinesib 0.003

AHNAK (UniProt Q09666)
inactive: [1] 0.01 | crizotinib 0.047 | [2] 0.042 | [3] -0.029 | duvelisib 0.001 | gandotinib 0.009 | tozasertib -0.01 | [4] -0.065 | doramapimod 0.012 | ispinesib 0.105

AHCTF1 isoform 2 (UniProt Q8WYP5)
inactive: [1] 0.017 | crizotinib 0 | [2] 0.186 | [3] 0.287 | duvelisib 0.025 | gandotinib 0.187 | tozasertib -0.111 | [4] -0.05 | doramapimod -0.051 | ispinesib -0.078

ALAD isoform 2 (UniProt P13716)
inactive: [1] -0.029 | crizotinib 0.035 | [2] 0.035 | [3] -0.057 | duvelisib 0.003 | gandotinib 0.013 | tozasertib -0.077 | [4] -0.064 | doramapimod -0.077 | ispinesib 0.123

AFG3L2 (UniProt Q9Y4W6)
inactive: [1] 0.009 | crizotinib 0.004 | [2] 0.053 | [3] -0.012 | duvelisib 0.043 | gandotinib -0.039 | tozasertib -0.014 | [4] 0.01 | doramapimod -0.011 | ispinesib -0.188

AMDHD2 isoform 3 (UniProt Q9Y303)
inactive: [1] 0.062 | crizotinib -0.03 | [2] 0.036 | [3] 0.001 | duvelisib 0.059 | gandotinib -0.009 | tozasertib -0.069 | [4] 0.019 | doramapimod 0.042 | ispinesib -0.027

ADO (UniProt Q96SZ5)
inactive: [1] 0.006 | crizotinib 0.025 | [2] 0.095 | [3] -0.002 | duvelisib 0.024 | gandotinib 0.008 | tozasertib -0.021 | [4] -0.037 | doramapimod 0.009 | ispinesib 0.03

ALKBH3 (UniProt Q96Q83)
inactive: [1] 0.015 | crizotinib 0.009 | [2] -0.053 | [3] -0.014 | duvelisib 0.008 | gandotinib 0.023 | tozasertib -0.033 | [4] 0.012 | doramapimod -0.054 | ispinesib 0.014

AFTPH isoform 9 (UniProt Q6ULP2)
inactive: [1] 0.016 | crizotinib -0.011 | [2] 0.032 | [3] -0.066 | duvelisib -0.051 | gandotinib 0.019 | tozasertib 0.009 | [4] -0.011 | doramapimod 0.022 | ispinesib 0.01

ALG6 (UniProt Q9Y672)
inactive: [1] 0.053 | crizotinib -0.206 | [2] 0.068 | [3] -0.052 | duvelisib 0.022 | gandotinib -0.079 | tozasertib -0.139 | [4] -0.045 | doramapimod 0.03

AIMP2 (UniProt Q13155)
inactive: [1] 0.013 | crizotinib -0.079 | [2] -0.394 | [3] 0.465 | duvelisib -0.13 | gandotinib 0.175 | tozasertib -0.036 | [4] 0.072 | doramapimod 0.25 | ispinesib -0.223

ALDH1L1 isoform 3 (UniProt O75891)
inactive: [1] -0.037

ADSS1 (UniProt Q8N142)
inactive: [1] 0.077 | crizotinib 0.011 | [2] 0.048 | [3] 0.012 | duvelisib -0.002 | gandotinib 0.016 | tozasertib -0.057 | [4] 0.032 | doramapimod 0.022 | ispinesib 0.005

2 neighbouring entries out of the list so far, quoted:
ALG6 (UniProt Q9Y672)
inactive: [1] 0.053 | crizotinib -0.206 | [2] 0.068 | [3] -0.052 | duvelisib 0.022 | gandotinib -0.079 | tozasertib -0.139 | [4] -0.045 | doramapimod 0.03

AIMP2 (UniProt Q13155)
inactive: [1] 0.013 | crizotinib -0.079 | [2] -0.394 | [3] 0.465 | duvelisib -0.13 | gandotinib 0.175 | tozasertib -0.036 | [4] 0.072 | doramapimod 0.25 | ispinesib -0.223

Additional records.

ADI1 (UniProt Q9BV57)
inactive: [1] 0.012 | crizotinib 0.08 | [2] 0.005 | [3] 0.022 | duvelisib -0.038 | gandotinib 0.038 | tozasertib 0.092 | [4] -0.13 | doramapimod 0.078 | ispinesib 0.074

AKIRIN2 (UniProt Q53H80)
inactive: [1] -0.101 | crizotinib -0.28 | [2] -0.308 | [3] -0.105 | duvelisib 0.028 | gandotinib -0.176 | tozasertib 0.062 | [4] 0.028 | doramapimod 0.037 | ispinesib -0.017

AKR1B1 (UniProt P15121)
inactive: [1] 0.04 | crizotinib -0.047 | [2] 0.023 | [3] -0.092 | duvelisib 0.035 | gandotinib -0.02 | tozasertib -0.078 | [4] -0.01 | doramapimod 0.009 | ispinesib 0.03

ALDH1A1 (UniProt P00352)
inactive: [1] 0.154 | crizotinib 0.092 | [2] 0.033 | [3] -0.06 | duvelisib 0.006 | gandotinib 0.019 | tozasertib -0.015 | [4] 0.028 | doramapimod -0.022 | ispinesib 0.067
